{
  "source": "paper PMC7843934",
  "binders": {"B1": {"name": "myocardin-related transcription factor A (MRTF-A) (protein, UniProt Q969V6 1-931)", "chain": "MPPLKSPAAFHEQRRSLERARTEDYLKRKIRSRPERSELVRMHILEETSAEPSLQAKQLKLKRARLADDLNEKIAQRPGPMELVEKNILPVESSLKEAIIVGQVNYPKVADSSSFDEDSSDALSPEQPASHESQGSVPSPLEARVSEPLLSATSASPTQVVSQLPMGRDSREMLFLAEQPPLPPPPLLPPSLTNGTTIPTAKSTPTLIKQSQPKSASEKSQRSKKAKELKPKVKKLKYHQYIPPDQKQDRGAPPMDSSYAKILQQQQLFLQLQILNQQQQQHHNYQAILPAPPKSAGEALGSSGTPPVRSLSTTNSSSSSGAPGPCGLARQNSTSLTGKPGALPANLDDMKVAELKQELKLRSLPVSGTKTELIERLRAYQDQISPVPGAPKAPAATSILHKAGEVVVAFPAARLSTGPALVAAGLAPAEVVVATVASSGVVKFGSTGSTPPVSPTPSERSLLSTGDENSTPGDTFGEMVTSPLTQLTLQASPLQILVKEEGPRAGSCCLSPGGRAELEGRDKDQMLQEKDKQIEALTRMLRQKQQLVERLKLQLEQEKRAQQPAPAPAPLGTPVKQENSFSSCQLSQQPLGPAHPFNPSLAAPATNHIDPCAVAPGPPSVVVKQEALQPEPEPVPAPQLLLGPQGPSLIKGVAPPTLITDSTGTHLVLTVTNKNADSPGLSSGSPQQPSSQPGSPAPAPSAQMDLEHPLQPLFGTPTSLLKKEPPGYEEAMSQQPKQQENGSSSQQMDDLFDILIQSGEISADFKEPPSLPGKEKPSPKTVCGSPLAAQPSPSAELPQAAPPPPGSPSLPGRLEDFLESSTGLPLLTSGHDGPEPLSLIDDLHSQMLSSTAILDHPPSPMDTSELHFVPEPSSTMGLDLADGHLDSMDWLELSSGGPVLSLAPLSTTAPSLFSTDFLDGHDLQLHWDSCL"}},
  "molecular_target": "T1, serum response factor (SRF) (human (endogenous in LX-2)) (UniProt P11831)",
  "T1 sequence": "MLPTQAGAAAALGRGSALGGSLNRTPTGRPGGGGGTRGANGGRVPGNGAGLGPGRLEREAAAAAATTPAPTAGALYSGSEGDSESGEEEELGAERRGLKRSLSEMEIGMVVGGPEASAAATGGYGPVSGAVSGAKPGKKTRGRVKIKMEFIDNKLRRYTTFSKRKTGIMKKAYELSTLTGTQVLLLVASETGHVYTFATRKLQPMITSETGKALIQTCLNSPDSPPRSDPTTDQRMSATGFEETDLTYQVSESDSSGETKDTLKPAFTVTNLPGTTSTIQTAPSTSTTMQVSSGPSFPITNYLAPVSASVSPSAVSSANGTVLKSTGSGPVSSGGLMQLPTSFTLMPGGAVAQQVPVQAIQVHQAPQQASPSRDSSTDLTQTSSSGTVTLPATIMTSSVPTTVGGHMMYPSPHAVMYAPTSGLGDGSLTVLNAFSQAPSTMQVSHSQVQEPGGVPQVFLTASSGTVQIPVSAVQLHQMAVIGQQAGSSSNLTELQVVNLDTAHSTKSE",
  "assay": "re-ChIP (sequential chromatin immunoprecipitation); LX-2 cells with or without TGF-β (5 ng/ml) for 24 h; chromatin cross-linked with 1% formaldehyde, sonicated to ~200 bp; immune complexes eluted (1% SDS, 100 mM NaCO3), diluted in re-ChIP buffer and precipitated with a second antibody; read out on the proximal EREG promoter",
  "note": "No constants are given. Whether binding was seen depends on the method and setting. Some results given as binding are weak or reduced against the parent protein; the word gives no strength.",
  "data": [
    {"binder": "B1", "values": [
      {"measurement": "binding", "value": "binds"}
    ]}
  ]
}
